Tested on: taste panelists
Assay: Taste panel rating of sweetness and licorice taste of 5% sucrose solutions
Format: in vivo, human
Conditions: scale 0 to 10
Protocol: A test compound, (2R,3R)-3-acetoxy-5,7,4′-trihydroxyflavanone (A01), was tested in comparison to naringenin for its sweetness enhancement of a 5% (w/w) aqueous solution of sucrose. Taste panelists were asked to taste the following 5% sucrose solutions in Henniez water and rate their sweetness on a scale from 0 to 10, and to rate the presence of any licorice taste in the sample on a scale from 0 to 10.
The test compound A01 was tested in comparison to other sweetness enhancers in a similar test to that set forth in Example 1. The comparative compounds are taxifolin 3-O-acetate (A02), and ampelopsin 3-O-acetate (A03).

[1] = +20 ppm in 5% sucrose solution (Table 2)

Row | SMILES | Licorice Taste (0-10) (+5 ppm in 5% (w/w) sucrose solution in Henniez water) | Licorice Taste (0-10) (+10 ppm in 5% (w/w) sucrose solution in Henniez water) | Licorice Taste (0-10) [1] | Licorice Taste (0-10) (+50 ppm in 5% (w/w) sucrose solution in Henniez water)
1 | CC(=O)O[C@H]1C(=O)c2c(O)cc(O)cc2O[C@@H]1c1ccc(O)cc1 [A01, (2R,3R)-3-acetoxy-5,7,4′-trihydroxyflavanone] | 1.0 | 2.0 | 1.5 | –
2 | CC(=O)OC1C(=O)c2c(O)cc(O)cc2OC1c1cc(O)c(O)c(O)c1 (centres unmarked) [A03, ampelopsin 3-O-acetate, reference compound] | – | – | 0.0 | –
3 | O=C1C[C@@H](c2ccc(O)cc2)Oc2cc(O)cc(O)c21 [naringenin, reference compound] | – | – | – | 0.5

— US12635718B2, “Flavanone derivatives and their use as sweetness enhancers” (Firmenich SA, priority 2019, dated 2026)
